In PubChem BioAssay AID504467 (National Center for Advancing Translational Sciences (NCATS), 2011):
The whole screen tested about 330,000 compounds, of which about 7,700 (2.3%) were called active. Inconclusive means that the source gave no clear call. Such entries were picked first, then a sample of the others. The call rests on the fitted dose curve; in most records, active means well fitted inhibition curve with a large enough effect; inconclusive means small, poorly fitted or top-dose-only effect, or effect the other way; inactive means flat fitted curve, though single readings scatter. Potencies of inconclusive entries are doubtful fits and often do not repeat.

Assay: qHTS screen for small molecules that inhibit ELG1-dependent DNA repair in human embryonic kidney (HEK293T) cells expressing luciferase-tagged ELG1; further: nearly all actives have a fitted effect of over 55% in size
Settings: HEK293T ELG1-luciferase reporter, luminescence, 16 h, DNA damage induced by 5-fluorouridine; activity change, negative = inhibition: at 46.1 µM (top of the series)
In short: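 Reporter activity after DNA damage by 5-fluorouridine is monitored. Compound-treated cells incubate 16 hr at 37 °C, then ONE-Glo is added for 30 min before luminescence reading.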
On the % scale 0 is the no-effect control and ±100 the full control effect; potency means the concentration at half of the fitted maximal effect.

| SMILES | Potency | activity change, negative = inhibition |
| --- | --- | --- |
| COc1ccc(CCn2c(C)cc3c(c2=O)C(c2ccc4c(c2)OCO4)C(C#N)=C(N)O3)cc1OC (stereo not drawn) | inconclusive: 20.6 µM [inhibitor, single point] | – |
| Cn1ccnc1/C(=N\NC(=O)c1ccc(O)cc1)c1cccc([N+](=O)[O-])c1 | inconclusive: 25.9 µM [activator, partial curve, poor fit] | – |
| COc1cccc(/C=C/C(=O)c2c(O)cc(C)oc2=O)c1O | inconclusive: 14.6 µM [activator, partial curve] | – |
| O=C(CSc1nnc(CNc2ccc(F)cc2)n1CC1CCCO1)N1CCOCC1 (stereo not drawn) | inactive | – |
| Cc1nc2ccccc2c(=O)n1/N=C/c1ccccn1 | inconclusive: 29.1 µM [activator, single point] | – |
| CC(=O)Nc1ccc(/C=C/c2noc(-c3ccccc3O)n2)cc1 | inconclusive: 4.11 µM [activator, full curve] | – |
| CC(=O)N1CCCc2cc(S(=O)(=O)N3CCCC(C)C3)ccc21 (stereo not drawn) | inconclusive: 2.59 µM [activator, full curve, poor fit] | – |
| O=C(NC1CC1)c1c(O)c2ccccc2[nH]c1=O | inconclusive: 9.2 µM [activator, partial curve] | – |
| O=C(Nc1ccccc1F)C1CCCN(S(=O)(=O)c2ccccc2)C1 (stereo not drawn) | inactive | – |
| CCOC(=O)c1ccc(NC(=O)CN2C(=O)C(CC)SC(CC)C2=O)cc1 (stereo not drawn) | inactive | – |
| CC(C)(C)NC(=O)C(c1cccnc1)N(C(=O)c1ccc(Cl)nc1)C1CCCC1 (stereo not drawn) | inactive | – |
| COc1ccc(S(=O)(=O)NCC(c2ccc(C)cc2)N2CCN(C)CC2)cc1OC (stereo not drawn) | inconclusive: 29.1 µM [activator, single point] | – |
| CC(C)(C)c1ccc(C(=O)NCC(=O)N/N=C/c2ccccc2OCC(=O)O)cc1 | inconclusive: 32.6 µM [activator, partial curve, poor fit] | – |
| Cc1cccc(C(=O)N[C@H](C(=O)Nc2cc(S(=O)(=O)N3CCCCC3)ccc2C)C(C)C)c1 | inconclusive: 9.2 µM [inhibitor, partial curve, poor fit] | – |
| COCCNC(=O)COc1ccc(C)cc1C(=O)c1cc(C#N)c(=O)n(C2CC2)c1 | inactive | – |
| Cn1c2ccccc2c(=O)c2ccc(C#CC3(O)CCCCC3)cc21 | inconclusive: 0.326 µM [activator, partial curve, poor fit] | – |
| COc1ccc(C(=O)NCCS(=O)(=O)NC2CCCC2)cc1 | inconclusive: 0.184 µM [activator, single point] | – |
| Cc1ccc2c(c1)N(CC(=O)NC1CCCCCC1)C(=O)c1cccnc1O2 | inactive | – |
| Cc1ccc(SCCNC(=O)c2ccc(C)c(S(=O)(=O)Nc3ccccc3C)c2)cc1 | active: 2.91 µM | – |
| CC1CCCC(C(=O)OCc2ccccc2)N1 (stereo not drawn) | inconclusive: 20.6 µM [activator, single point] | – |
| Cc1cc(Cl)ccc1OCC(=O)N[C@@H](Cc1ccccc1)c1nc2ccccc2[nH]1 | inactive | – |
| C=CCN=c1scc(C)n1/N=C/c1ccc(O)c(O)c1 | inconclusive: 10.3 µM [activator, partial curve] | – |
| S=C(Nc1ccc2nsnc2c1)N1CCCC1 | inconclusive: 20.6 µM [activator, partial curve] | – |

| SMILES | Potency | activity change, negative = inhibition |
| --- | --- | --- |
| Cn1cnnc1SCC(=O)Nc1ccc2c(c1)CCC2 | inconclusive: 23.1 µM [activator, partial curve, poor fit] | – |
| COc1ccc(NS(=O)(=O)c2ccc(Cl)c(N)c2)cc1Br | inconclusive: 16.4 µM [inhibitor, partial curve] | – |
| O=[N+]([O-])c1ccc(COc2cccc(CNc3ccc(F)cc3)c2)cc1 | inactive | – |
| CCCSc1nsc(N)n1 | inconclusive: 25.9 µM [activator, single point] | – |
| Cc1ccc(-c2nn(C(C)(C)C)c3ncnc(NS(=O)(=O)c4ccc([N+](=O)[O-])cc4)c23)cc1 | inconclusive: 29.1 µM [inhibitor, single point] | – |
| CC(=O)c1ccc(N(C(=O)Cn2nnc3ccccc32)C(C(=O)NCc2ccccc2)c2ccccn2)cc1 (stereo not drawn) | inconclusive: 16.4 µM [activator, single point] | – |
| O=C(Nc1ccccc1OC(F)F)c1cccc(S(=O)(=O)N2CCCC2)c1 | inactive | – |
| CCc1ccc(/C=C2\SC(=S)N(CCCC(=O)Nc3ccc(C(=O)O)cc3)C2=O)cc1 | inconclusive: 25.9 µM [activator, single point] | – |
| Cc1ccc(OCCOc2cccc(/C=N/NC(N)=O)c2)cc1 | inconclusive: 7.3 µM [activator, partial curve] | – |
| CCOC(=O)CC(=O)Nc1ncnc2c1C(c1ccccc1)c1c(ccc3ccccc13)O2 (stereo not drawn) | inconclusive: 11.6 µM [inhibitor, partial curve, poor fit] | – |
| O=C(CC(=O)NC1CCCCC1)N/N=C/c1cccc2ccccc12 | inactive | – |
| Cc1ccc(S(=O)(=O)N(C)C)cc1-n1c(SCC(=O)Nc2ccccc2)nc2ccccc2c1=O | inconclusive: 32.6 µM [inhibitor, partial curve, poor fit] | – |
| O=C(CSc1ncnc2nc[nH]c12)c1ccc([N+](=O)[O-])cc1 | inconclusive: 0.184 µM [inhibitor, single point] | – |
| COc1ccccc1Oc1ccc(S(=O)(=O)N2CCCCC2)cc1NC(=O)CCNC(C)=O | inactive | – |
| CCn1cc(C(=O)NCc2ccco2)c(=O)c2cc(S(=O)(=O)N3CC(C)CC(C)C3)ccc21 (stereo not drawn) | active: 2.91 µM | – |
| COc1cccc(-c2nc(CS(=O)(=O)CC(=O)NC3CCCc4ccccc43)c(C)o2)c1 (stereo not drawn) | inconclusive: 16.4 µM [inhibitor, partial curve] | – |
| O=C(NNC(=O)c1cc2ccccc2oc1=O)c1ccccc1 | inconclusive: 20.6 µM [activator, partial curve] | – |
| O=c1oc(-c2cccnc2)nc2ccccc12 | inactive | – |
| COc1ccc2c(/C=N/NS(=O)(=O)c3ccc(C)cc3)c[nH]c2c1 | inactive | – |
| OC(c1ccccc1)(c1ccccc1)c1ncc[nH]1 | inconclusive: 11.2 µM [activator, single point] | – |
| COc1ccccc1NCC(=O)N/N=C/c1c(O)ccc2ccccc12 | inconclusive: 2.59 µM [inhibitor, full curve] | – |
| Cn1c(SCC(=O)Nc2ccc(N3CCOCC3)cc2)nnc1-c1ccccc1F | inactive | – |
| CCOC(=O)C1CCCN(c2nc3ccccc3nc2NS(=O)(=O)c2ccc(C)cc2)C1 (stereo not drawn) | inactive | – |

Of the compounds above, these contain a Cl atom:

| SMILES | Potency | activity change, negative = inhibition |
| --- | --- | --- |
| CC(C)(C)NC(=O)C(c1cccnc1)N(C(=O)c1ccc(Cl)nc1)C1CCCC1 (stereo not drawn) | inactive | – |
| Cc1cc(Cl)ccc1OCC(=O)N[C@@H](Cc1ccccc1)c1nc2ccccc2[nH]1 | inactive | – |
| COc1ccc(NS(=O)(=O)c2ccc(Cl)c(N)c2)cc1Br | inconclusive: 16.4 µM [inhibitor, partial curve] | – |

Two entries drawn at random from those above:

| SMILES | Potency | activity change, negative = inhibition |
| --- | --- | --- |
| Cn1c(SCC(=O)Nc2ccc(N3CCOCC3)cc2)nnc1-c1ccccc1F | inactive | – |
| O=C(Nc1ccccc1OC(F)F)c1cccc(S(=O)(=O)N2CCCC2)c1 | inactive | – |

Later entries.

| SMILES | Potency | activity change, negative = inhibition |
| --- | --- | --- |
| O=C(COc1ccc(F)cc1Cl)Nc1cccc(S(=O)(=O)N2CCCCCC2)c1 | inconclusive: 5.8 µM [inhibitor, partial curve] | – |
| N#CC1=C(N)C(C#N)(C#N)[C@H](c2ccncc2)[C@H]2CN(C(=O)OCc3ccccc3)CC=C12 | inconclusive: 29.1 µM [inhibitor, single point] | – |
| Nn1cc(-c2ccccc2)nc1SCC(=O)NCCc1ccccc1 | inactive | – |
| CN(C)c1ccc(/C=N/NC(=O)COc2ccccc2)cc1 | inconclusive: 20.6 µM [activator, partial curve, poor fit] | – |
| CCN(CC)c1ccc(/C=N/NC(=O)C2CC2)cc1 | inconclusive: 16.4 µM [activator, partial curve] | – |
| CCC(C)c1ccc(OCc2ccc(C(=O)OC)o2)cc1 (stereo not drawn) | inconclusive: 4.11 µM [activator, full curve] | – |
| O=C(NNS(=O)(=O)c1ccccc1[N+](=O)[O-])c1cc2ccccc2cc1O | inactive | – |
| N#Cc1ccccc1S(=O)(=O)N1CCN(CC(O)CN2CCOCC2)CC1 (stereo not drawn) | inconclusive: 0.073 µM [activator, partial curve, poor fit] | – |
| O=C(C1=C[C@@H](c2coc3ccccc3c2=O)C[C@@H](OCc2ccc(CO)cc2)O1)N1CCCCCCC1 | inconclusive: 16.4 µM [inhibitor, single point] | – |
| CC(C)(C)c1ccc(S(=O)(=O)/N=C2\C=C(NS(=O)(=O)c3ccccc3)C(=O)c3ccccc32)cc1 | inconclusive: 18.3 µM [inhibitor, partial curve] | – |
| C=CCn1c(C)cc(C(=O)CSc2nnc(Cc3ccccc3)o2)c1C | inactive | – |
| COc1ccc(N(CC(=O)NCc2ccc3c(c2)OCO3)C(=O)c2csnn2)cc1 | inconclusive: 16.4 µM [activator, partial curve, poor fit] | – |
| Cc1cc(N/N=C2/CCCc3ccccc32)nc2ccccc12 | – | inconclusive: 5.3% [activator] |
| CCOC(=O)c1c(-c2ccc(C)cc2)csc1/N=C(\C)C1=C(O)c2ccccc2C1=O | active: 7.3 µM | – |
| COc1ccc(C(=O)COC(=O)c2cc(=O)[nH]c3ccccc23)c(OC)c1 | inconclusive: 6.51 µM [activator, partial curve] | – |
| Cc1ccc(Sc2ccc(NC(=O)CCl)cc2)c(C)c1 | inconclusive: 29.1 µM [inhibitor, partial curve, poor fit] | – |
| Cc1oc(-c2ccccc2Cl)nc1CS(=O)CC(=O)NCCCN1CC(C)CC(C)C1 (stereo not drawn) | inactive | – |
| CCc1ccc(C(=O)CN2C(=O)NC(C)(CCc3ccccc3)C2=O)cc1 (stereo not drawn) | inactive | – |
| Cc1ccc(CNC(=O)C(Cc2ccccc2)NS(=O)(=O)c2ccc(Br)s2)cc1 (stereo not drawn) | inconclusive: 20.6 µM [inhibitor, partial curve, poor fit] | – |
| CC(C)C[C@H]1CN=C(Nc2ccccc2)N1CC1CCC(C)CC1 (stereo partly drawn) | inactive | – |
| C[C@@H]1CCC(=O)N(C[C@@H](C)CSc2ccccc2)CC1 | inconclusive: 7.3 µM [activator, single point] | – |
| CC1Sc2ccc(C(=O)OCc3ccccc3Cl)cc2NC1=O (stereo not drawn) | inconclusive: 5.8 µM [activator, partial curve] | – |
